Measurements reported in paper PMC5686188.
These are yes or no findings as the source states them, for the method shown. In cells and extracts the contact can be indirect. These calls come from enrichment with a bait or labelling near it, and not all partners need be listed. For some assays here: No binding means not detected with the bait.

The chains behind the UniProt entries cited, without tags or fusion partners. Where a name states a change or a piece, a line headed by the entry shows the natural chain unless it says otherwise.
UniProt Q8I253: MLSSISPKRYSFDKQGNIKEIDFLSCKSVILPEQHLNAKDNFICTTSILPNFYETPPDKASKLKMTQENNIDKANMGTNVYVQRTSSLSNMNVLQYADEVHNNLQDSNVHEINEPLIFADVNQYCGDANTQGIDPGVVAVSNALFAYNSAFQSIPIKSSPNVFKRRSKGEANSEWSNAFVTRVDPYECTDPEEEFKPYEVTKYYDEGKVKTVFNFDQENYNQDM
UniProt Q8IDR3: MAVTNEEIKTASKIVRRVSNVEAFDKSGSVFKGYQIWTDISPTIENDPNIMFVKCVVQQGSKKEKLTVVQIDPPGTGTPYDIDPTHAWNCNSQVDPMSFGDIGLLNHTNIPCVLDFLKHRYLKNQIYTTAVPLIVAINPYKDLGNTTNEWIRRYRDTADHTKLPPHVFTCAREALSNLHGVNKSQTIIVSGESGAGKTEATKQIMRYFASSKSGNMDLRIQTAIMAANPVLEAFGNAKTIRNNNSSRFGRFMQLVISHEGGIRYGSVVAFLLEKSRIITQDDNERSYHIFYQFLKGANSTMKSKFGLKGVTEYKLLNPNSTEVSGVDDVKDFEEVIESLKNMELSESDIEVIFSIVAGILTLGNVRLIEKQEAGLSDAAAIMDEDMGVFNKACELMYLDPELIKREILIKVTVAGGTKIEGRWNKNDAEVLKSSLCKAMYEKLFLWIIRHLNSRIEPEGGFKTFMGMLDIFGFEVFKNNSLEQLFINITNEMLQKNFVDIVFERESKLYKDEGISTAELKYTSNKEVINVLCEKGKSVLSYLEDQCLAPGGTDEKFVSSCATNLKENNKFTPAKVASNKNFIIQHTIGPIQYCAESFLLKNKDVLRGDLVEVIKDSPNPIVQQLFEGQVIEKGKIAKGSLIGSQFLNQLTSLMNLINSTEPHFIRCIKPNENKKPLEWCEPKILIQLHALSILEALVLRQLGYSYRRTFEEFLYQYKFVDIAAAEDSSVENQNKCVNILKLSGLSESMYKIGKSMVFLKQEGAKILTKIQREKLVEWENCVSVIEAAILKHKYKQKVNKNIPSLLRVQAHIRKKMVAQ
UniProt A0A0Y9W4B5: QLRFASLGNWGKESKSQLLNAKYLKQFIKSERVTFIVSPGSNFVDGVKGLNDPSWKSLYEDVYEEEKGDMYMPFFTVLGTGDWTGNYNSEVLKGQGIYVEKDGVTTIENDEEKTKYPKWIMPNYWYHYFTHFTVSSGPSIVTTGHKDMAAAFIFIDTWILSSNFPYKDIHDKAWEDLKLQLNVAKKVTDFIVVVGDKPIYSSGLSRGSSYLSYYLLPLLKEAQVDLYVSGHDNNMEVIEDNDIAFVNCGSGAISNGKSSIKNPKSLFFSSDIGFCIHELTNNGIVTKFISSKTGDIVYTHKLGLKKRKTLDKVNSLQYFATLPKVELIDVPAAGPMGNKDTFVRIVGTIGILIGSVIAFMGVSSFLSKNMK
UniProt Q8I4W8: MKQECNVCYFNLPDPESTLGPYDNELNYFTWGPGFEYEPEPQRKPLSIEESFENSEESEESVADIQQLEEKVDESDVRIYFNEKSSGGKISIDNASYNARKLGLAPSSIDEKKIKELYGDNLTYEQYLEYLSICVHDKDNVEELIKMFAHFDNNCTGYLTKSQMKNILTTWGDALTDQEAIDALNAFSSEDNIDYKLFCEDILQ

Tests used:
[1] = target: PfPhIL1-GFP (P. falciparum Photosensitized INA-Labelled protein 1 fused to GFP) (P. falciparum) (UniProt Q8I253); test: affinity purification with mass spectrometry; GFP-Trap_A beads (Chromotek) on mature schizont/merozoite lysate of P. falciparum PhIL1-GFP parasites; eluate digested with trypsin, peptides analysed by mass spectrometry; control: lysate of 3D7
[2] = target: PbPhIL1-GFP (P. berghei PhIL1 with C-terminal GFP) (P. berghei); test: affinity purification with mass spectrometry; GFP-Trap beads on cell lysate of P. berghei PhIL1-GFP parasites; bound proteins digested with trypsin, peptides analysed by mass spectrometry; control: lysate of a P. berghei line ubiquitously expressing GFP
[3] = target: PfPhIL1-GFP (P. falciparum Photosensitized INA-Labelled protein 1 fused to GFP) (P. falciparum), Q8I253; test: affinity purification with mass spectrometry; GFP-Trap_A beads (Chromotek) on mature schizont/merozoite lysate of P. falciparum PhIL1-GFP parasites; eluate digested with trypsin, peptides analysed by mass spectrometry; control: lysate of 3D7; details: remark: other sources report otherwise

In the case of “P. falciparum class XIV myosin A (MyoA) (from UniProt Q8IDR3 1-818)”, the binding [1] is reported as “no binding”.

For “P. berghei glideosome-associated protein 50 (GAP50) (from UniProt A0A0Y9W4B5)”, the binding [2] was “binds”.

With “P. falciparum myosin tail interacting protein (MTIP) (from UniProt Q8I4W8 1-204)” the binding [1] was “no binding”.

B1: P. falciparum glideosome-associated protein 40 (GAP40) (protein, UniProt Q8I3V1 1-456)
chain: MKFEKFNIPEWSDIERYFKDPELLTAEILFVALTLCNVFVMYRLFLDVIPYPIFVTWWQLAQGLLVAYVCGELGREFPKFAYFPKVEINENMLKVLFVPSIFYCLMLVLSNYLLYKTPCIASYPVLVSFTVVFHHLTRFIGCGEEYMPLRWKSIVFLLAAFIIGCFDSKTTGKGVIVWALLYALFSAIFRAGFMQKIMHLVDGKGNTLHNNQHLLGVLILPVLILLSGELSVFVHMPYDITSLHTWQMWGCLITVGTLPFIKNVISNRLVRRTGQGPWRFLEIISIILVFFIGMTYNAPSFKGYLAILCVIIGRSLGAFDVLLNASDYMHAEDERKRKNPRASYAKSRQGTQASKPFLSSADNEEDEESSFSSNDSKSYQGSQDYDDKESVNSSSQQYSVHKGTSHMDSSSNQTSHGVISADEGRGEHSRAATFKSKSKLSRNYSSKQHEMLDSQA
For B1, the binding [1] was “no binding”.

B2: P. falciparum glideosome-associated protein 45 (GAP45), Q8I5I8 1-204 (protein)
chain: MGNKCSRSKVKEPKRKDIDELAERENLKKQSEEIIEEKPEEVVEQVEETHEEPLEQEQELDEQKIEEEEEEPEQVPKEEIDYATQENKSFEEKHLEDLERSNSDIYSESQKFDNASDKLETGTQLTLSTEATGAVQQITKLSEPAHEESIYFTYRSVTPCDMNKLDETAKVFSRRCGCDLGERHDENACKICRKIDLSDTPLLS
B2 was tested, and the binding [3] was “no binding”.
